Reference: PMC7851937

Chains of the proteins cited; added tags and fusions are not shown.
UniProt Q86TM6: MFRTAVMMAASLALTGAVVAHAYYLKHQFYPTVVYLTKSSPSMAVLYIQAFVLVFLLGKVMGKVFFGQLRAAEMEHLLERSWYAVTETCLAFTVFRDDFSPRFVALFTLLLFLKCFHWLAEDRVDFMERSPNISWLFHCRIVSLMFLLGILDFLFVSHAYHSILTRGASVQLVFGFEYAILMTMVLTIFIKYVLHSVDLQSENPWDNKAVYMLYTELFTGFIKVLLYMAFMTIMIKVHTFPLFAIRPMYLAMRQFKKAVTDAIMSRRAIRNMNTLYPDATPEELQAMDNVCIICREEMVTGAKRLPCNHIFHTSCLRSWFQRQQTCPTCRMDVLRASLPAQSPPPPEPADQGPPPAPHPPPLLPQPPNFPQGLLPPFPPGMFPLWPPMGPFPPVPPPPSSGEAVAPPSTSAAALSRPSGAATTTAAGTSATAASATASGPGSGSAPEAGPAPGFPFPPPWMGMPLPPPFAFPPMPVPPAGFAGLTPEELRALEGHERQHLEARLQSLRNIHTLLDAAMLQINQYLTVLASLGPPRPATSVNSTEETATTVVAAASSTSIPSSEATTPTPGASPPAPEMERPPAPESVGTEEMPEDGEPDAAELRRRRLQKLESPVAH
UniProt P08670: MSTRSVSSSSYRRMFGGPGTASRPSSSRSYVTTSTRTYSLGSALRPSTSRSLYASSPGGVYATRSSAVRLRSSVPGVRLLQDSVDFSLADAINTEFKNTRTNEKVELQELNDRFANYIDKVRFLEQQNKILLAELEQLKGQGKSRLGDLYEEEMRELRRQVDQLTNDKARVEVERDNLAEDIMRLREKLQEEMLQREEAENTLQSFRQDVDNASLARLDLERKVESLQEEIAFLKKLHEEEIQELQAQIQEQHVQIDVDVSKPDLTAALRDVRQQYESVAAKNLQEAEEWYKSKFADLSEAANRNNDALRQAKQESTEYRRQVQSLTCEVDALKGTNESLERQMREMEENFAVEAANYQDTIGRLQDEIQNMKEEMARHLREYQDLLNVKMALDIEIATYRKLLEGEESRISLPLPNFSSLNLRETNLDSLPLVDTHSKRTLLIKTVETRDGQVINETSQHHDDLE

Molecular target: HRD1 stably overexpressed in MDA-MB-231 cells (human) (UniProt Q86TM6)
Assay: affinity purification with mass spectrometry; IP with anti-HRD1 (rabbit normal IgG as control) overnight at 4 °C from NP-40 lysates of MDA-MB-231 cells stably overexpressing HRD1, MG132 10 μM for 6 h; SDS-PAGE, LC-MS, iBAQ

With “Vimentin (endogenous, MDA-MB-231) (from UniProt P08670 1-466)” the binding was “binds”.

No constants are given. Whether binding was seen depends on the method and setting. Binding seen in cells or lysates may run through a third protein. These calls come from enrichment with a bait or labelling near it, and not all partners need be listed.
